# ChEMBL document CHEMBL4354803, “Synthesis and biological activity of structurally diverse phthalazine derivatives: A systematic review” (Bioorg Med Chem, 2019)
# Protein sequences, listed by entry. Tags and fused reporters are not part of them. Lines headed by an entry give the natural chain unless they say otherwise; changes in a name come on top.
# UniProt P22303: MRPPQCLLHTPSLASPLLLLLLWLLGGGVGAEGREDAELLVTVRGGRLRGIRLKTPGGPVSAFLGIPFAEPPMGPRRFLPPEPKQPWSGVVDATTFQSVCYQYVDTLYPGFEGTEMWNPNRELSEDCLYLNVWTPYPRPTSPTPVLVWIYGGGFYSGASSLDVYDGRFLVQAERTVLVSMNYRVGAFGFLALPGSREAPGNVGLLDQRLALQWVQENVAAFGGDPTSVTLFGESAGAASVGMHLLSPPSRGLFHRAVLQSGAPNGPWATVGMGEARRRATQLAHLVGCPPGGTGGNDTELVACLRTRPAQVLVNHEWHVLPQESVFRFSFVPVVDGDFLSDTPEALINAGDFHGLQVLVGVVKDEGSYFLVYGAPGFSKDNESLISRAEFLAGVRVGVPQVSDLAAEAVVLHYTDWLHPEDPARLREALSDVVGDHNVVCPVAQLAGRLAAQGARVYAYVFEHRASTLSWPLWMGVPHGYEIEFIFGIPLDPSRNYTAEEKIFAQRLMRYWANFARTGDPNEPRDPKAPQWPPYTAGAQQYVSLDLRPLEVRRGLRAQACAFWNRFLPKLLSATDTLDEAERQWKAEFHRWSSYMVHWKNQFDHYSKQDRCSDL
# Target: Acetylcholinesterase (Homo sapiens, UniProt P22303)
row,Structure (SMILES),Ki
1,NS(=O)(=O)c1ccc(C(=O)n2[nH]c(=O)c3cc(F)ccc3c2=O)cc1,60.8 to 250 nM
2,NS(=O)(=O)c1ccc(C(=O)n2[nH]c(=O)c3c(F)cccc3c2=O)cc1,60.8 to 250 nM
3,NS(=O)(=O)c1ccc(C(=O)n2[nH]c(=O)c3cc([N+](=O)[O-])ccc3c2=O)cc1,60.8 to 250 nM
4,NS(=O)(=O)c1ccc(C(=O)n2[nH]c(=O)c3ccc(C(=O)O)cc3c2=O)cc1,60.8 to 250 nM
5,NS(=O)(=O)c1ccc(C(=O)n2[nH]c(=O)c3c([N+](=O)[O-])cccc3c2=O)cc1,60.8 to 250 nM
